# Laboratory results taken from PubChem BioAssay AID1347076 (National Center for Advancing Translational Sciences (NCATS), 2019).
# Out of some 400,000 compounds screened, about 13,000 (3.2%) were called active. Inconclusive results, whose numbers are uncertain, are shown with a selection of clear calls. Calls come from the whole dose curve; as a rule, active = well fitted cell-killing curve with a large enough effect; inconclusive = small, poorly fitted or top-dose-only effect, or effect the other way; inactive = flat fitted curve, though single readings scatter. Potencies of inconclusive entries are doubtful fits and often do not repeat.
# Assay: qHTS assay for MDR1-selective chemotherapeutics: Primary screen using the drug-selected MDR subline cells KB-V1; note: nearly all actives have a fitted effect of over 60% in size
# Settings: KB-V1 MDR cells viability, CellTiter-Glo, 72 h; activity change, negative = cytotoxicity: at 46.1 µM (top of the series)
# Outline: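 KB-V1, DMEM (no phenol red) + 10% FBS; cpd pin-transferred, titration series; 72 h, 37 degrees C; CellTiter-Glo, luminescence. Data normalized, curve-fit.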
# % is set by controls: 0 for no effect and ±100 for the full control effect; potency is the fitted concentration of half-maximal effect.
SMILES,Potency,"activity change, negative = cytotoxicity"
CC[C@]12CCCN3CCc4c(n(c5ccccc45)[C@](O)(C(=O)OC)C1)[C@@H]32,"inconclusive: 18.4 µM [cytotoxic, single point]",–
O=C(CCn1c(=O)c2ccccc2n(Cc2cccc([N+](=O)[O-])c2)c1=O)N1CCc2ccccc2C1,"inconclusive: 9.2 µM [cytotoxic, partial curve, poor fit]",–
COC(=O)Nc1sccc1C(=O)Nc1sccc1C(=O)OC,"inconclusive: 17.8 µM [cytotoxic, single point]",–
Cc1ccc2c(CC(=O)Nc3cc(C(F)(F)F)ccc3Cl)coc2c1C,–,inactive: 5.62%
O=C(NCc1ccccc1)c1cccc(NC(=O)c2ccccc2)c1,–,inactive: 0.205%
CN(C)S(=O)(=O)c1cccc(NC(=O)CCc2c[nH]c3ccccc23)c1,"inconclusive: 18.4 µM [cytotoxic, single point]",–
S=C(NCCN(C1CCCCC1)C1CCCC1)Nc1cccc(Cl)c1,"inconclusive: 29.1 µM [cytotoxic, single point]",–
CCOC(=O)c1c(C)[nH]c(C)c1S(=O)(=O)N1CCC(C(=O)Nc2ccccn2)CC1,"inconclusive: 16.4 µM [rising, partial curve, poor fit]",–
COc1ccc2c(c1OC)C(=O)OC2Nc1nc(-c2cc3ccccc3oc2=O)cs1 (centres undefined),"inconclusive: 29.1 µM [cytotoxic, single point]",–
CN(C(=O)c1cc2ccccc2oc1=O)C1(C)CCS(=O)(=O)C1 (centres undefined),–,inactive: 14.1%
CCc1c(C)c(C#N)c2nc3ccccc3n2c1NCCN(C)C,"inconclusive: 25.9 µM [cytotoxic, single point]",–
Cc1c(C(N)=O)sc2nc(-c3ccccc3)cn12,"inconclusive: 16.4 µM [cytotoxic, partial curve, poor fit]",–
CC(C)(C)C(=O)Nc1sc(-c2ccccc2)cc1C(=O)O,"inconclusive: 13 µM [cytotoxic, partial curve, poor fit]",–
COc1ccccc1/C(C)=N/NC(=S)NCc1ccccc1,"inconclusive: 29.1 µM [cytotoxic, single point]",–
COc1cc(OC)c(/C=C/c2ccc3ccccc3n2)c(OC)c1,–,inactive: -5.19%
O=C(CCl)N1c2ccccc2Sc2c1ccc1ccccc21,"inconclusive: 20.6 µM [cytotoxic, single point]",–
O=C(/C=C\c1cccs1)N1CCN(Cc2ccc3c(c2)OCO3)CC1,"inconclusive: 29.1 µM [cytotoxic, partial curve, poor fit]",–
Cc1nn(-c2ccccc2)c(C)c1C(=O)OCc1ccc(C#N)cc1,–,inactive: -26%
Cn1c(-c2sc3ccccc3c2Cl)n[nH]c1=S,active: 16.4 µM,–
CCN1C(=O)c2ccccc2Sc2ccc(NC(=O)c3ccc(C)c(F)c3)cc21,"inconclusive: 8.2 µM [cytotoxic, partial curve, poor fit]",–
COc1ccc(C2Nc3ccccc3C(=O)N2Cc2ccccc2)cc1COc1ccc([N+](=O)[O-])c(C)c1 (centres undefined),–,inactive: 14.9%
COc1ccc(OC)c(/C=C/C(=O)c2ccc3c(c2)OCCO3)c1,"inconclusive: 29.1 µM [cytotoxic, single point]",–

# Laid out differently: results already given
SMILES | Potency | activity change, negative = cytotoxicity
CCN1C(=O)c2ccccc2Sc2ccc(NC(=O)c3ccc(C)c(F)c3)cc21 | inconclusive: 8.2 µM [cytotoxic, partial curve, poor fit] | –
COc1ccc(C2Nc3ccccc3C(=O)N2Cc2ccccc2)cc1COc1ccc([N+](=O)[O-])c(C)c1 (centres undefined) | – | inactive: 14.9%

# (further entries)

SMILES,Potency,"activity change, negative = cytotoxicity"
COc1cccc(NC(CNS(=O)(=O)c2ccc(C)cc2)c2ccccc2)c1 (centres undefined),active: 18.4 µM,–
CCOc1ccc(C2/C(=C(\O)c3ccc4c(c3)OCCO4)C(=O)C(=O)N2CCN2CCOCC2)cc1OC (centres undefined),"inconclusive: 29.1 µM [rising, single point]",–
S=C(NCC1CCCCC1)Nc1ccc(Oc2ccccc2)cc1,"inconclusive: 29.1 µM [cytotoxic, single point]",–
CC(C)Cc1nnc(NC(=O)C2CCN(C(=O)c3ccc(Cl)cc3)CC2)s1,"inconclusive: 8.2 µM [cytotoxic, partial curve, poor fit]",–
O=C(Nc1cc(Cl)cc(Cl)c1)C1CCC(=O)N1Cc1ccccc1Cl (centres undefined),"inconclusive: 18.4 µM [cytotoxic, single point]",–
O=C(CSc1ccc2ccccc2c1)Nc1ccncc1,–,inactive: 8%
Cc1ccc(NC(=O)CN2CCN(Cc3ccccc3)CC2)cc1Cl,–,inactive: -23.3%
CCOC(=O)c1sc(NC(=O)c2cccnc2)nc1C,"inconclusive: 29.1 µM [rising, single point]",–
CC(NC(=O)Cc1ccc(NS(=O)(=O)c2cccc(C(F)(F)F)c2)cc1)c1ccccn1 (centres undefined),active: 20.6 µM,–
CCc1nc2n(n1)C(O)c1cc([N+](=O)[O-])ccc1S2 (centres undefined),"inconclusive: 1.3 µM [rising, full curve]",–
O=C1/C(=C/Nc2ccc3c(c2)OCO3)CCc2ccccc21,active: 23.1 µM,–
COc1ccc(CN(C)C(=O)c2cccc(Oc3ccccc3)c2)c(OC)c1OC,"inconclusive: 29.1 µM [cytotoxic, single point]",–
Oc1ccc(-c2csc(-c3cccnc3)n2)cc1O,"inconclusive: 32.6 µM [cytotoxic, partial curve, poor fit]",–
CCOC(=O)c1c(NC(=O)c2ccc(Cl)cc2)csc1C,active: 9.2 µM,–
COc1ccc(/C=N/N2CCN(C)CC2)cc1O,"inconclusive: 23.1 µM [rising, single point]",–
O=C(NCCN1CCC(n2c(=O)[nH]c3ccccc32)CC1)c1ccc(F)cc1Cl,"inconclusive: 29.1 µM [cytotoxic, single point]",–
COc1ccccc1N(CC(=O)NCCSCc1ccc(Cl)cc1)S(C)(=O)=O,inactive,–
CCCCCCn1c(=O)n2n(c1=O)[C@@H]1CN(S(=O)(=O)c3ccc(C)cc3)C[C@]1(O)[C@@H](OC(=O)NCc1ccc(OC)c(OC)c1)C2,–,inactive: 13.3%
CCn1c(NC(=O)c2ccc(C)cc2)c2ccccc2nc1=O,active: 11.6 µM,–
CC(C)CCn1c(CN2CCN(Cc3ccccc3)CC2)nc2c1c(=O)[nH]c(=O)n2C,"inconclusive: 1.3 µM [cytotoxic, full curve, poor fit]",–
CCc1c(C)nc2nncn2c1Nc1ccc(C)c(F)c1,"inconclusive: 29.1 µM [cytotoxic, single point]",–
COc1ccc(-c2cc(C(=O)N3CC4(C)CC3CC(C)(C)C4)no2)cc1OC (centres undefined),active: 20.6 µM,–
